These are yes or no findings as the source states them, for the method shown. Some binding calls cover weakened binding; strength is not graded here.

Sequences of proteins named here, by UniProt entry; tags and fusion partners are left off. Residues count along the entry.
UniProt P15391, residues 20-291: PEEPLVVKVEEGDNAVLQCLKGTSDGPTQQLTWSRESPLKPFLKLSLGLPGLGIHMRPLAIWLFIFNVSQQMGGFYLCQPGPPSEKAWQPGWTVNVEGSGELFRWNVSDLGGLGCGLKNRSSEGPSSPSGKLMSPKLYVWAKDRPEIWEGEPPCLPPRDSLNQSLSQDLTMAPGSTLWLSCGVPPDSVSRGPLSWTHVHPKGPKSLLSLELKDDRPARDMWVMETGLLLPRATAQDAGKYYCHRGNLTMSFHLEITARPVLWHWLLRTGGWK

Consider 1 substance from patent publication US20200331998A1.

For assay [1], the target named is UCART19 CAR (anti-CD19 chimeric antigen receptor with a 4G7-derived scFv, on UCART19 cells). The assay is described as follows: flow cytometry on primary human T cells expressing the CAR.
Assay [2] has the same target. As to the kind of experiment: flow cytometry on primary human T cells (FIG. 6B legend).

For “soluble CD19-hFc (from UniProt P15391 20-291) (Fc fusion)”, the binding entry in assay [1] and in assay [2] was “binds” in each case.
